Results as given in publication PMC4356366, “Structures of the human Pals1 PDZ domain with and without ligand suggest gated access of Crb to the PDZ peptide-binding groove” (Acta Crystallographica Section D: Biological Crystallography, 2015).
Results are given in words; binding and its absence hold for the method and conditions named. Some binding calls cover weakened binding; strength is not graded here.

The chains behind the UniProt entries cited, without tags or fusion partners. Where a name states a change or a piece, a line headed by the entry shows the natural chain unless it says otherwise.
UniProt P82279: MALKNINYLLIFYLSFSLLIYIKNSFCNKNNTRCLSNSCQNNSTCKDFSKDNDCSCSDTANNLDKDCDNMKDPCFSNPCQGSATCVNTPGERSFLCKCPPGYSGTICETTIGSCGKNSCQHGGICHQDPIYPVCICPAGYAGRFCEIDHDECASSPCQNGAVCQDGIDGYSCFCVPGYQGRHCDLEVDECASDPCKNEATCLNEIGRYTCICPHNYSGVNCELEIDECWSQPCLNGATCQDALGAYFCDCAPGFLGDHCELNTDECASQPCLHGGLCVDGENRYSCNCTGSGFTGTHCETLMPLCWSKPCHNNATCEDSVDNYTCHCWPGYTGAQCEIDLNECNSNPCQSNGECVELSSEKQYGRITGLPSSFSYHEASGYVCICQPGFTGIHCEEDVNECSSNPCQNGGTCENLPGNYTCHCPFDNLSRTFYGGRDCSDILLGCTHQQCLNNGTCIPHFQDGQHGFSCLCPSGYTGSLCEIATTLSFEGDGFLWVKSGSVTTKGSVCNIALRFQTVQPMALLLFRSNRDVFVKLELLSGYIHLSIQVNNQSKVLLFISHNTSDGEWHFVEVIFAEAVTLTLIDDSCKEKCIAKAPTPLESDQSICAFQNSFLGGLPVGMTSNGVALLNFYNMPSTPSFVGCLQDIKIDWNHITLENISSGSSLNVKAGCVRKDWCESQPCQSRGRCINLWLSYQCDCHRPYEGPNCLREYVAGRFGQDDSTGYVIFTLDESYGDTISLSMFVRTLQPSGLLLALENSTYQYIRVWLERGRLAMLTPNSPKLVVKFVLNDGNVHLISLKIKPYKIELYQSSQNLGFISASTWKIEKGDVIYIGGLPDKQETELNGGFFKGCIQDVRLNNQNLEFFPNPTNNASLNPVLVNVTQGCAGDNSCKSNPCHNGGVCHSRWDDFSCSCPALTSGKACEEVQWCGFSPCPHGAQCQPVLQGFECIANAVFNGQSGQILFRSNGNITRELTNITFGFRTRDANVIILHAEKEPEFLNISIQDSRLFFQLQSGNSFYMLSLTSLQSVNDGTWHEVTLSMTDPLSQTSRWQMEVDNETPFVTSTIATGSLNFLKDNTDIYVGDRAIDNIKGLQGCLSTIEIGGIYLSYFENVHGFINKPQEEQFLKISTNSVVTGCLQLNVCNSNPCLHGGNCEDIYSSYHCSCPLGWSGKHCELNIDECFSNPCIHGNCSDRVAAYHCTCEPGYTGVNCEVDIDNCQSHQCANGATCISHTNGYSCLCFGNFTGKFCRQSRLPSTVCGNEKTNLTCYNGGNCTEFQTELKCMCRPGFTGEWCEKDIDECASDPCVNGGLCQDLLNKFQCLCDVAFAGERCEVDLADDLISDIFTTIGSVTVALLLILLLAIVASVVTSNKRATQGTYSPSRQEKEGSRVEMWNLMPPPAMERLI

Assays:
[1] = target: T1, fluorescein-labelled Crb^17 I1406A (human) (UniProt P82279); assay: condition: protein concentration ranging from 0 to 300 µM; fluorescence polarisation; fixed fluorescein-labelled peptide (50 nM), Pals1 PDZ protein titrated 0 to 300 µM; 20 mM HEPES pH 7.5, 100 mM NaCl, 1 mM DTT; 20 µl in 384-well plate, read after 5 min; both purified
T1 sequence (peptide, fluorescein-labelled (position not stated)): RVEMWNLMPPPAMERLA

[2] = target: T2, human Crumbs peptide (homologue 1; residues 1390-1406), Crb^17, as used for crystallization (human); assay: crystal structure; Pals1^PDZ incubated with a two-molar excess of Crb^17 for 30 min on ice; crystals at 20°C in 0.1 M HEPES pH 7.29, 2.68 M NaCl; 1.23 Å; both purified
T2 sequence (peptide): RVEMWNLMPPPAMERLI

[3] = target: T2, human Crumbs peptide (homologue 1; residues 1390-1406), Crb^17, as used for crystallization (human); assay: SEC; complex followed by the intrinsic tryptophan fluorescence of Crb^17; data not shown; both purified

- binding [1]: no binding
- binding [2]: binds
- binding [3]: binds
B1: human Pals1 PDZ domain (Pals1^PDZ; residues 251-335), wild type (domain or fragment, UniProt Q8N3R9 251-335)
chain: GPLGSGETVKIVRIEKARDIPLGATVRNEMDSVIISRIVKGGAAEKSGLLHEGDEVLEINGIEIRGKDVNEVFDLLSDMHGTLTFVLIPS
